Values from PubChem BioAssay AID1259283 (Sanger Institute, 2017)

Purpose: 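Kinases whose silencing adds to targeted drugs in killing colon cancer cells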 (primary screen)
System: HT115 colorectal cancer cells
Knock-down reagent: siRNA pool against human genes
Challenge: anchor drug given one day after siRNA: BYL719 at 1 µM, cetuximab at 5 µg/ml, trametinib at 10 nM, or DMSO vehicle alone
Measurement: 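Viability normalised to non-targeting pool #2 wells and averaged over replicates, robust z-score against control wells, and a synergy score for each of three drugs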
Direction: robust z-score, knock-down alone: higher = more viable cells after knock-down
Rule for the call: 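a gene counts as essential when its robust z-score with knock-down alone is below -3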
Meaning of the calls: active = essential (z below -3, no drug); inactive = no change without drug
The whole screen tested 794 reagents; below is a random part of them. Over the whole deposit, 14 (1.8%) are marked active. 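Calls reflect only viability loss without drug; drug synergy does not enter the call.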 Unmarked entries are inactive. Not all columns of the deposit are shown. Not stated in the record: the amount of reagent, the time to read-out.

Silencing of TNK1 (tyrosine kinase non receptor 1) gave: robust z-score, knock-down alone 0.436.
For LMBR1 (limb development membrane protein 1), the entry reads robust z-score, knock-down alone 0.77.
With knock-down of SRP72 (signal recognition particle 72) the results were robust z-score, knock-down alone -0.446.
PRKAG3 (protein kinase AMP-activated non-catalytic subunit gamma 3) gave robust z-score, knock-down alone -3.28 (active).
MERTK (MER proto-oncogene, tyrosine kinase) gave robust z-score, knock-down alone 0.28.
For BRSK1 (BR serine/threonine kinase 1), the entry reads robust z-score, knock-down alone -0.0241.
DYRK3 (dual specificity tyrosine phosphorylation regulated kinase 3) scored robust z-score, knock-down alone -0.888.
For KCNH8 (potassium voltage-gated channel subfamily H member 8) the deposit lists robust z-score, knock-down alone -0.504.
PI4KB (phosphatidylinositol 4-kinase beta) scored robust z-score, knock-down alone 0.789.
PIM2 (Pim-2 proto-oncogene, serine/threonine kinase) showed robust z-score, knock-down alone 0.789.
Against NEK5 (NIMA related kinase 5), the values are robust z-score, knock-down alone 0.789.
With knock-down of RIOK2 (RIO kinase 2) the results were robust z-score, knock-down alone 0.789.
Against YES1 (YES proto-oncogene 1, Src family tyrosine kinase), the values are robust z-score, knock-down alone 0.0435.
After knock-down of BLK (BLK proto-oncogene, Src family tyrosine kinase), the record shows robust z-score, knock-down alone 0.789.
Against WNK2 (WNK lysine deficient protein kinase 2), the values are robust z-score, knock-down alone 0.693.
With knock-down of ELF3 (E74 like ETS transcription factor 3), the record shows robust z-score, knock-down alone -2.41.
With knock-down of MAP3K3 (mitogen-activated protein kinase kinase kinase 3), the record shows robust z-score, knock-down alone -0.334.
AAK1 (AP2 associated kinase 1) showed robust z-score, knock-down alone 0.451.
With knock-down of NUCKS1, the screen gave robust z-score, knock-down alone 0.789.
Knock-down of SYK (spleen associated tyrosine kinase) resulted in: robust z-score, knock-down alone -1.21.
With knock-down of PRKAG2 (protein kinase AMP-activated non-catalytic subunit gamma 2), the record shows robust z-score, knock-down alone 0.747.
PDGFRA (platelet derived growth factor receptor alpha) gave robust z-score, knock-down alone 0.0509.
With knock-down of RPS6KB1 (ribosomal protein S6 kinase B1), the screen gave robust z-score, knock-down alone 0.789.
After knock-down of UHMK1 (U2AF homology motif kinase 1), the record shows robust z-score, knock-down alone 0.654.
Against CDK9 (cyclin dependent kinase 9), the values are robust z-score, knock-down alone -0.145.
After knock-down of SNRK (SNF related kinase), the record shows robust z-score, knock-down alone -2.56.
For LYN (LYN proto-oncogene, Src family tyrosine kinase), the values are robust z-score, knock-down alone -0.558.
After knock-down of PRKCE (protein kinase C epsilon), the record shows robust z-score, knock-down alone -0.841.
Depletion of CLK1 (CDC like kinase 1) resulted in: robust z-score, knock-down alone 0.281.
After knock-down of BRSK2 (BR serine/threonine kinase 2) the results were robust z-score, knock-down alone 0.789.
INSR (insulin receptor) gave robust z-score, knock-down alone 0.789.
CDK20 (cyclin dependent kinase 20) showed robust z-score, knock-down alone -0.0262.
Silencing of GCK (glucokinase) resulted in: robust z-score, knock-down alone -2.41.
EFNA5 (ephrin A5) gave robust z-score, knock-down alone 0.789.
Depletion of SRMS gave: robust z-score, knock-down alone 0.136.
For ACVR2A (activin A receptor type 2A) the deposit lists robust z-score, knock-down alone -0.786.

Quoted from the listing, 2 entries:
TNK1 (tyrosine kinase non receptor 1): robust z-score, knock-down alone = 0.436
LMBR1 (limb development membrane protein 1): robust z-score, knock-down alone = 0.77
